According to PubChem BioAssay AID1851 (National Center for Advancing Translational Sciences (NCATS), 2009):
In all, about 16,000 compounds went through this assay and about 4,000 (25%) were called active. This list was built around the results that the source calls inconclusive (neither active nor inactive); the mix of calls is not that of the screen. The call rests on the fitted dose curve; in most records, active means well fitted curve in the direction sought with a large enough effect; inconclusive means small, poorly fitted or top-dose-only effect, or effect the other way; inactive means no such curve, though single readings can be large or run the other way. Potencies of inconclusive entries are doubtful fits and often do not repeat.

Amino acid sequences for entries named in this document (tags omitted).
UniProt P11712, whole entry, looked up: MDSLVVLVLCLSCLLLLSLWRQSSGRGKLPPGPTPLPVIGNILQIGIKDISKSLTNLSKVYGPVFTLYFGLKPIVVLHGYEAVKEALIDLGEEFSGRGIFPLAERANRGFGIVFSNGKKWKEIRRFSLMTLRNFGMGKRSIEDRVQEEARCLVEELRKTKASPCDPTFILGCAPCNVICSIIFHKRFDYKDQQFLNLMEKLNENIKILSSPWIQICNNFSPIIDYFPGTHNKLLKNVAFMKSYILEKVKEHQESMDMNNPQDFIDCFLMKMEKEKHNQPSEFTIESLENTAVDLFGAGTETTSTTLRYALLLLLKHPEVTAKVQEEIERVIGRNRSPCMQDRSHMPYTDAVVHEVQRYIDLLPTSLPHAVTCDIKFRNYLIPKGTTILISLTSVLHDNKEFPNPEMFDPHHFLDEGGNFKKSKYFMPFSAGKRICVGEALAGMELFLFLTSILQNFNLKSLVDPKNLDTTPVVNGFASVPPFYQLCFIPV

These compounds were tested against Cytochrome P450 2C9 (Homo sapiens) (UniProt P11712) (assay: Cytochrome panel assay with activity outcomes). Conditions: recombinant CYP, pro-luciferin dealkylation, luminescence; p450-cyp2c9.

Compound | AC50
CO[C@@H]([CH2][Hg])CN1C(=O)c2ccccc2S1(=O)=O.Cn1c(=O)c2nc[nH]c2n(C)c1=O | inconclusive: 7.94 µM [falling, single point]
